Reference: PubChem BioAssay AID256 (DTP/NCI, 2004)
The list shows only some results of the screen, not a fair sample: it covers a few groups of compounds. Other doses and runs of a compound may be missing. T/C is the treated group as % of the vehicle group. Where survival is the endpoint, this PubChem deposit counts one and a half times the control or more as active, and values a quarter to a half above the control carry no call in these data; other NCI protocols may use other cut-offs. Some entries show no survivor count and are marked so; the dose need not have been tolerated. Schedule codes are those of the source, taken here to give the interval after Q, in days (D) or hours (H), and the number of doses after X. Some entries were tested several times; the results are listed from low to high.

Test system: CD2F1 mice, L1210 leukemia ip, survival T/C
Experiment: NCI In Vivo Anticancer Drug Screen. Data for tumor model L1210 Leukemia (intraperitoneal) in CD2F1 (CDF1) mice
Conditions: T/C endpoint: mean survival time, higher T/C = longer survival
Method: The antitumor activity of compounds was measured in mice bearing transplantable tumors. Survival or tumor size were measured and the results are expressed as the measurement made in the treated group (T) divided by the measurement made in the vehicle treated control group (C). The tumor model used in this assay is L1210 Leukemia (intraperitoneal) in CD2F1 (CDF1) mice

## BrCCN(CCBr)c1ccc2c(c1)Cc1ccccc1-2
dose: 3.0 mg/kg/injection, schedule: Q01DX009 (ip), vehicle: saline with Tween-80
  T/C: 108 % of control [survivor count not shown]
dose: 3.13 mg/kg/injection, schedule: Q01DX009 (ip), vehicle: saline with Tween-80
  T/C: 121 % of control [survivor count not shown]
dose: 6.0 mg/kg/injection, schedule: Q01DX009 (ip), vehicle: saline with Tween-80
  T/C: 116 % of control [survivor count not shown]
dose: 6.25 mg/kg/injection, schedule: Q01DX009 (ip), vehicle: saline with Tween-80
  T/C: 120 % of control [survivor count not shown]
dose: 12.0 mg/kg/injection, schedule: Q01DX009 (ip), vehicle: saline with Tween-80
  T/C: 130 % of control [survivor count not shown]
dose: 12.5 mg/kg/injection, schedule: Q01DX009 (ip), vehicle: saline with Tween-80
  T/C: 128 [survivor count not shown] and 146 % of control [survivor count not shown]
dose: 24.0 mg/kg/injection, schedule: Q01DX009 (ip), vehicle: saline with Tween-80
  T/C: 132 % of control [survivor count not shown]
dose: 25.0 mg/kg/injection, schedule: Q01DX009 (ip), vehicle: saline with Tween-80
  T/C: 135 [survivor count not shown] and 151 % of control [survivor count not shown]
dose: 48.0 mg/kg/injection, schedule: Q01DX009 (ip), vehicle: saline with Tween-80
  T/C: 130 % of control [survivor count not shown]
dose: 50.0 mg/kg/injection, schedule: Q01DX009 (ip), vehicle: saline with Tween-80
  T/C: 116 % of control [survivor count not shown]
dose: 100.0 mg/kg/injection, schedule: Q01DX009 (ip), vehicle: saline with Tween-80
  T/C: 97 [survivor count not shown] and 108 % of control [survivor count not shown]
dose: 100.0 mg/kg/injection, schedule: Q04DX003 (ip), vehicle: saline with Tween-80
  T/C: 136 % of control [survivor count not shown]
dose: 200.0 mg/kg/injection, schedule: Q04DX003 (ip), vehicle: saline with Tween-80
  T/C: 144 % of control [survivor count not shown]
dose: 400.0 mg/kg/injection, schedule: Q04DX003 (ip), vehicle: saline with Tween-80
  T/C: 113 % of control [survivor count not shown]

## CC/C(C)=N/N(CCCl)CCCl
dose: 12.5 mg/kg/injection, schedule: Q01DX009 (ip), vehicle: saline
  T/C: 108 % of control [survivor count not shown]
dose: 25.0 mg/kg/injection, schedule: Q01DX009 (ip), vehicle: saline
  T/C: 115 % of control [survivor count not shown]
dose: 50.0 mg/kg/injection, schedule: Q01DX009 (ip), vehicle: saline
  T/C: 144 % of control [survivor count not shown]
dose: 100.0 mg/kg/injection, schedule: Q01DX009 (ip), vehicle: saline
  T/C: 102 % of control [survivor count not shown]

## CCN(CC)P(=O)(Cl)OC (configuration not stated)
dose: 3.12 mg/kg/injection, schedule: Q01DX009 (ip), vehicle: DMSO
  T/C: 100 % of control [survivor count not shown]
dose: 6.25 mg/kg/injection, schedule: Q01DX009 (ip), vehicle: DMSO
  T/C: 96 % of control [survivor count not shown]
dose: 12.5 mg/kg/injection, schedule: Q01DX009 (ip), vehicle: DMSO
  T/C: 93 % of control [survivor count not shown]

## ClCCN(CCCl)c1ccc(Oc2ccccc2)cc1
dose: 12.5 mg/kg/injection, schedule: Q01DX009 (ip), vehicle: Klucel (hydroxypropylcellulose) (HPC)
  T/C: 94 % of control [survivor count not shown]
dose: 25.0 mg/kg/injection, schedule: Q01DX009 (ip), vehicle: Klucel (hydroxypropylcellulose) (HPC)
  T/C: 97 % of control [survivor count not shown]
dose: 50.0 mg/kg/injection, schedule: Q01DX009 (ip), vehicle: Klucel (hydroxypropylcellulose) (HPC)
  T/C: 95 % of control [survivor count not shown]
dose: 100.0 mg/kg/injection, schedule: Q01DX009 (ip), vehicle: Klucel (hydroxypropylcellulose) (HPC)
  T/C: 101 % of control [survivor count not shown]
dose: 200.0 mg/kg/injection, schedule: Q01DX009 (ip), vehicle: Klucel (hydroxypropylcellulose) (HPC)
  T/C: 101 % of control [survivor count not shown]
dose: 400.0 mg/kg/injection, schedule: Q01DX009 (ip), vehicle: Klucel (hydroxypropylcellulose) (HPC)
  T/C: 100 % of control [survivor count not shown]
